Reference: PubChem BioAssay AID2417 (National Center for Advancing Translational Sciences (NCATS), 2010)
The campaign covered roughly 140,000 compounds. About 4,300 (3.1%) were called active. Inconclusive means that the source gave no clear call. Such entries were picked first, then a sample of the others.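 The calls were made as follows: active = readout at or below -70, meaning at least 70% loss of cells showing the perinucleolar compartment, a nuclear body marking cancer cells; inconclusive = readout between -30 and a set limit; inactive = the rest.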

test: High Content Assay for Compounds that inhibit the Assembly of the Perinucleolar Compartment; details: PC3M PTB-GFP, PNC prevalence imaging, 16 h; at 10 µM; hits give low values;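 also: plate controls were DMSO wells for no effect and camptothecin positive control wells for full effect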
Method in brief: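 Read-out is percentage of cells bearing a perinucleolar compartment, from automated 20x imaging of fixed, Hoechst-stained PC3M PTB-GFP cells. Cells were seeded 4 h, then exposed 16 h to compound (23 nl of library stock) in duplicate plates.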

Structure (SMILES) | activity change (PNC), negative = inhibition
CC1CCCN(C(=O)c2ccc3nc[nH]c3c2)C1 (centres undefined) | inactive: 37.7%
CC(C)OC(=O)Nc1ccc(Oc2c(F)c(F)c(F)c(F)c2F)cc1 | inactive: 18.4%
COc1ccc(N2CCN(S(=O)(=O)c3ccc(C(=O)NC4CCCC4)cc3)CC2)cc1 | inconclusive: -34.6%
CC(Nc1c([N+](=O)[O-])c(=O)oc2ccccc12)C(Cl)c1ccccc1 (centres undefined) | inactive: 96.5%
CCC(C)(C)n1nnnc1CN(Cc1ccco1)Cc1cc2cc3c(cc2[nH]c1=O)OCO3 | inconclusive: -41.9%
COc1ccc(C(=O)NC2c3ccccc3-c3ccccc32)cc1 | inconclusive: -37.1%
CCCN(CCC)C(=O)Cn1c(=O)n(CCCCC(=O)NC2CCCC2)c(=O)c2ccccc21 | inconclusive: -39.4%
N/C(=N\c1nc2ccccc2o1)NC(=O)C(Cc1ccccc1)N1C(=O)c2ccccc2C1=O (centres undefined) | active: -100%
O=C(Nc1ccc(F)cc1)C1CCCN(S(=O)(=O)c2cccc3cccnc23)C1 (centres undefined) | inconclusive: -59%
CCOC(NC(=O)c1ccccc1)C(NC(=O)c1ccccc1)OCC (centres undefined) | inconclusive: -47.2%
N#Cc1ccc(OCC(=O)N2CCN(S(=O)(=O)c3cccs3)CC2)cc1 | inconclusive: -38.4%
Cc1c(Cl)cnc(NC(=O)COC(=O)c2ccc3ncsc3c2)c1Cl | inactive: -15.3%
C/C(=N\O)C(=O)NCCN(C)C | inconclusive: -40.2%
COCc1cc(=O)[nH]c(SCC(=O)Nc2ccccc2)n1 | inactive: 10.3%
CCOC(=O)c1c(CN2CCOCC2)n(C)c2cc(Br)c(O)c(CN(C)C)c12 | inconclusive: -45.9%
CCOC(=O)CSc1nnc([C@H](C)NC(=O)OC(C)(C)C)o1 | inconclusive: -73.7%
CCN(CC)S(=O)(=O)c1ccc(C(=O)Nc2cc3oc4ccccc4c3cc2OC)cc1 | inactive: 12%
O=C(NCc1cccnc1)c1ccc(S(=O)(=O)N2CCOCC2)cc1 | inconclusive: -72.3%
CCCCNS(=O)(=O)c1ccc(NC(=O)C2c3ccccc3Oc3ccccc32)cc1 | inconclusive: -74%
COc1ccc(CCNC(=O)CSc2cn(Cc3cccc(C)c3)c3ccccc23)cc1OC | inconclusive: -66%
COC(=O)c1cc(NC(=O)Cn2c(=O)cnc3ccccc32)cc(C(=O)OC)c1 | inconclusive: -37.1%
CCOc1ccc(-n2c(SCC)nc3c(c2=O)SCC3)cc1 | inactive: 1.72%
CCOC(=O)N1CCN(C(=O)c2ccc(CNS(=O)(=O)c3ccc(C)cc3)cc2)CC1 | inconclusive: -44.1%

Structure (SMILES) | activity change (PNC), negative = inhibition
CCOC(=O)c1ccc(NS(=O)(=O)N2CCCCCC2)cc1 | inconclusive: -39.2%
COc1ccc(N2CCN(CCNC(=O)c3ccc(NC(=O)C4CCCO4)cc3)CC2)cc1 (centres undefined) | inconclusive: -32%
CCCn1c(=O)n(N)c2ccccc21 | inconclusive: -67.4%
COc1ccc(OC)c(-n2c(CN3CCC(C(N)=O)CC3)nc3ccccc3c2=O)c1 | inconclusive: -31.6%
CCOC(=O)CN1C(c2ccc(O)cc2)Nc2ccc(Br)cc2C1c1ccccc1 (centres undefined) | inconclusive: -32.9%
Cc1cccc2cc(CN(CC3CCCO3)C(c3nnnn3Cc3ccco3)C(C)C)c(=O)[nH]c12 (centres undefined) | inactive: 8.45%
O=C(NCc1cccs1)C1CCCN(S(=O)(=O)c2ccc3c(c2)OCO3)C1 (centres undefined) | inconclusive: -66.8%
Cc1sc(NC(=O)CN(Cc2ccc(F)cc2)C(=O)C(C)(C)C)c(C(N)=O)c1C | inconclusive: -30.5%
COc1ccc(CNC(=O)c2cccc(N(C)C)c2)cc1 | active: -83.2%
O=C(CCN1C(=O)c2ccccc2C1=O)OCN1C(=O)c2ccccc2C1=O | inactive: -4.37%
CCc1nc(N2CCCC2C(=O)O)c2oc3ccccc3c2n1 (centres undefined) | inactive: -12.1%
O=C(Nc1ccc(C(=O)N2CCCC2)cc1)Nc1ccc(Cl)cc1Cl | inconclusive: -52.1%
O=C(/C=C/c1cccc([N+](=O)[O-])c1)NC(=S)Nc1ccc(CN2CCOCC2)cc1 | inconclusive: -68.8%
COc1ccc(NC(=O)CSc2nnc(-c3ccco3)n2C)cc1 | inconclusive: -36.3%
Cc1ccc(C(=O)ON=C2CCN(c3ccc([N+](=O)[O-])cc3)CC2)cc1 | inactive: -4%
O=C(CS(=O)(=O)Cc1ccccc1)Nc1ncccn1 | inconclusive: -41.6%
Cc1ccc2c(CC(=O)N3CCN(S(=O)(=O)c4ccc5c(c4)OCCO5)CC3)coc2c1 | inactive: 22.8%
Cn1nnnc1SCC(=O)N1CCN(c2cccc(Cl)c2)CC1 | inconclusive: -79.3%
CCOc1c(Cl)cnn(-c2ccc(C)cc2)c1=O | inconclusive: -33.6%
Cc1ccc(NC(=O)c2noc3c2CCCCC3)cc1 | inconclusive: -72%
NNc1nc(-c2ccccc2Cl)nc2sc3c(c12)CCCC3 | inactive: -0.45%
COc1ccc(C2CC(=O)C(C=NCCN3CCN(C(C)=O)CC3)=C(O)C2)cc1OC (centres undefined) | inactive: 16.5%
Cc1[nH]ccc(=O)c1OCc1c(Cl)cccc1Cl | inconclusive: -77.4%

Structure (SMILES) | activity change (PNC), negative = inhibition
COC(=O)C1=C(C(=O)OC)N2C=CC=CC2(C)C(C(=O)OC)=C1C(=O)OC (centres undefined) | inconclusive: -50.5%
CNC(=O)COC(=O)c1cc(NC(=O)c2ccco2)c(OC)c(OC)c1 | inconclusive: -43%
CCc1cc2ccc(OC)cc2nc1SCC(=O)Nc1cc(C)on1 | inconclusive: -73.4%
O=C1CC(C(=O)N2CCOCC2)C2(CCCCC2)O1 (centres undefined) | inconclusive: -39.8%
COc1cc(NC(=O)C(=O)NNC(=O)C2CCCCC2)c(OC)cc1Cl | active: -94.6%
CCc1ccc(/C=C2/C(=O)N(CC)C(=S)N2C)s1 | inconclusive: -37.8%
CC(C)(C)N1CC(c2nc3ccccc3n2Cc2ccc(F)cc2)CC1=O (centres undefined) | inconclusive: -43.1%
CC(C)c1ccccc1-n1c(SCc2cc(=O)oc3ccc4ccccc4c23)nnc1-c1cccnc1 | inconclusive: -50.4%
O=C1Nc2ccccc2N=C(c2ccccc2)C1N1CCOCC1 (centres undefined) | inconclusive: -36.5%
O=C(CSc1nnnn1C1CCCCC1)NCc1ccco1 | inactive: -19.2%
O=C(COc1ccc(Br)cc1CNCCCN1CCOCC1)Nc1ccccc1 | inactive: 21.6%
Cc1ccc(NC(=O)c2ccc(NCc3ccco3)c([N+](=O)[O-])c2)cc1Cl | inactive: -24.6%
CCC(CC)c1nnc(NC(=O)CCN2C(=O)c3ccccc3C2=O)s1 | inconclusive: -62.7%
Cc1ccc(S(=O)(=O)N2CCN(C(=O)c3c(C)nn(-c4ccccc4)c3Cl)CC2)cc1 | inactive: -18.9%
Cc1ccc2c3c1C(=O)C(=O)N3C(C)(C)CC2C (centres undefined) | inactive: -8.31%
OC1CCCN(Cc2ccc3c(c2)Cc2ccccc2-3)C1 (centres undefined) | inconclusive: -44.7%
CCN=C1SC(CC(=O)NCCc2ccc(OC)cc2)C(=O)N1CC (centres undefined) | inactive: 7.59%
Cc1cccc(OCCNc2cc(N3CCN(CCO)CC3)ccc2[N+](=O)[O-])c1 | inconclusive: -44.8%
COc1ccc(NC(=O)CCSc2ccc3ccccc3n2)cc1 | inconclusive: -51.4%
O=C(c1cnc2c(c1)COc1ccc(Cl)cc1-2)c1ccccc1O | inconclusive: -47.1%
Cc1nc(N2CCCC2C(=O)O)c2oc3ccccc3c2n1 (centres undefined) | inconclusive: -49.3%
CCOc1ccc(NC(=O)CCCOc2cc(=O)n(C)c3ccccc23)cc1 | inconclusive: -37.3%
CC1(C)CC(=O)C(=Cc2cn(CCC#N)nc2-c2ccc(Cl)cc2)C(=O)C1 | inactive: -0.104%

Filtered by structure, those above with two or more sulfur atoms
Structure (SMILES) | activity change (PNC), negative = inhibition
N#Cc1ccc(OCC(=O)N2CCN(S(=O)(=O)c3cccs3)CC2)cc1 | inconclusive: -38.4%
CCOc1ccc(-n2c(SCC)nc3c(c2=O)SCC3)cc1 | inactive: 1.72%
O=C(NCc1cccs1)C1CCCN(S(=O)(=O)c2ccc3c(c2)OCO3)C1 (centres undefined) | inconclusive: -66.8%
CCc1ccc(/C=C2/C(=O)N(CC)C(=S)N2C)s1 | inconclusive: -37.8%

(further entries)

Structure (SMILES) | activity change (PNC), negative = inhibition
CCc1ccc(-n2c(C)cc(/C=N/NC(=O)OC)c2C)cc1 | inactive: -6.12%
Cc1nc(NNC(=O)c2ccccc2)cc(-c2ccccc2)n1 | inconclusive: -50.5%
CCOc1ccc(OCC)c(NC(=O)CCS(=O)(=O)c2ccc(Br)s2)c1 | inconclusive: -33.2%
Cc1ccc(NC2=C(N3CCCCC3)C(=O)c3ccccc3C2=O)cc1 | inactive: 13.5%
COc1cc(C(=O)N/N=C/c2sc(=O)n(-c3ccccc3)c2Cl)cc(OC)c1OC | inactive: 1.85%
COc1ccc(N(CC(=O)NC2CCCCC2)C(=O)CNC(=O)c2ccco2)cc1OC | active: -100%
Cc1cccc(NS(=O)(=O)c2cc(C(=O)N3CCc4ccccc4C3)ccc2Cl)c1C | inconclusive: -31.1%
Cc1ccc(/C=N/NC(=O)CSc2nc3nc(C)cc(C)n3n2)cc1 | inconclusive: -31.5%
O=C(NCc1ccc2c(c1)OCO2)c1cc(-c2ccccc2)on1 | inactive: 36.4%
CC(=O)N1CCN(CC(=O)Nc2ccccc2Sc2ccc(Cl)cc2)CC1 | inconclusive: -66.6%
O=C1CC(N2CCC(O)(c3ccc(Br)cc3)CC2)C(=O)N1c1ccc(Cl)cc1 (centres undefined) | inactive: 29.8%
CCOC(=O)C(NC(=O)c1ccc(OC)cc1)(N1CCOCC1)C(F)(F)F (centres undefined) | inconclusive: -51.6%
C=CCNc1sc(C(=O)c2ccccc2)c(N)c1C#N | inactive: -25.5%
CC1CCN(C(=O)CSc2nc(N)c3c4c(sc3n2)CN(C)CC4)CC1 | inconclusive: -51.2%
CC(SCc1ccccc1)C(=O)N/N=C/c1cccs1 (centres undefined) | inactive: 9.87%
O=C(Nc1ccc(Oc2ccc3ccccc3c2)cc1)c1ccco1 | inconclusive: -37.4%
CC(NC(=O)OCc1ccccc1)C(=O)N1CC(O)CC1C(=O)O (centres undefined) | inconclusive: -32.2%
CC(C)C(=O)Nc1cccc(NC(=O)c2cc3ccccc3o2)c1 | inconclusive: -32%
COC(=O)c1ccc(N)cc1O | inconclusive: -43.6%
CCOC(=O)CSc1nc(N)c(C(=O)Nc2ccc(N(C)C)cc2)s1 | inconclusive: -34.1%

Retrieved by structure from above (two):
Structure (SMILES) | activity change (PNC), negative = inhibition
C=CCNc1sc(C(=O)c2ccccc2)c(N)c1C#N | inactive: -25.5%
O=C(Nc1ccc(Oc2ccc3ccccc3c2)cc1)c1ccco1 | inconclusive: -37.4%
